{"source": "PubChem BioAssay AID686938 | Drosophila RNAi Screening Center, 2013", "aim": "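Looking for CRAC channel components and the factors controlling them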 (primary screen)", "cell system": "Drosophila S2R+ cells", "knock-down reagent": "long dsRNA against Drosophila genes, about 0.25 µg dsRNA per well, roughly 10,000 cells", "duration": "5 days of knock-down before the calcium assay", "treatment": "thapsigargin (SERCA pump blocker) to empty calcium stores; entry signal taken 4 min after adding it", "detection": "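Duplicate raw fluo-4 intensities per well from a plate reader, at rest and four minutes after thapsigargin emptied calcium stores; entry-to-rest ratio filled for only some wells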", "scale": "calcium entry signal: higher = stronger calcium signal after store depletion; entry to resting ratio: higher = more calcium entry relative to resting level; resting calcium signal: higher = higher resting calcium signal", "units": "calcium entry signal in fluorescence units; resting calcium signal in fluorescence units", "call rule": "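Hit if the duplicate-averaged plate z-score for entry over resting signal is under −3; wells with weak total dye signal (Fmax z < −2) or more than 5 off-targets removed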", "meaning of the calls": "active = strongly reduced calcium entry; inactive = no strong reduction", "note": "In all, the deposit lists about 23,000 reagents; shown is a random part of those with a known target gene and a result. Over the whole deposit, 75 (0.33%) were called active. 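Raw plate signals without normalisation; calls rest on plate z-scores that were not deposited; ratio present for only 364 wells.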 Reagents against one gene are numbered here. Names joined by + are all predicted targets of the reagent. Reagent sequences are not shown. Not given: the dose of the treatment."}
The opening 2 records as a preview:
{"gene":"Syx4 (Syntaxin 4)","dsRNA no.":1,"calcium entry signal, replicate 1":3.02e7,"calcium entry signal, replicate 2":5.28e7,"entry to resting ratio":2,"resting calcium signal, replicate 1":1.53e7,"resting calcium signal, replicate 2":2.27e7,"activity call":"inactive"}
{"gene":"ry (rosy)","dsRNA no.":1,"calcium entry signal, replicate 1":3.76e7,"calcium entry signal, replicate 2":4.70e7,"resting calcium signal, replicate 1":1.62e7,"resting calcium signal, replicate 2":2.03e7,"activity call":"inactive"}

Results, from the first entry:
{"gene":"Syx4 (Syntaxin 4)","dsRNA no.":1,"calcium entry signal, replicate 1":3.02e7,"calcium entry signal, replicate 2":5.28e7,"entry to resting ratio":2,"resting calcium signal, replicate 1":1.53e7,"resting calcium signal, replicate 2":2.27e7,"activity call":"inactive"}
{"gene":"ry (rosy)","dsRNA no.":1,"calcium entry signal, replicate 1":3.76e7,"calcium entry signal, replicate 2":4.70e7,"resting calcium signal, replicate 1":1.62e7,"resting calcium signal, replicate 2":2.03e7,"activity call":"inactive"}
{"gene":"CG10730","dsRNA no.":1,"calcium entry signal, replicate 1":2.56e7,"calcium entry signal, replicate 2":3.41e7,"resting calcium signal, replicate 1":1.23e7,"resting calcium signal, replicate 2":1.60e7,"activity call":"inactive"}
{"gene":"Myo61F (Myosin 61F)","dsRNA no.":1,"calcium entry signal, replicate 1":2.66e7,"calcium entry signal, replicate 2":3.50e7,"resting calcium signal, replicate 1":1.33e7,"resting calcium signal, replicate 2":1.55e7,"activity call":"inactive"}
{"gene":"CG3632","dsRNA no.":1,"calcium entry signal, replicate 1":3.21e7,"calcium entry signal, replicate 2":4.71e7,"resting calcium signal, replicate 1":1.59e7,"resting calcium signal, replicate 2":2.09e7,"activity call":"inactive"}
{"gene":"CG3632","dsRNA no.":2,"calcium entry signal, replicate 1":4.22e7,"calcium entry signal, replicate 2":3.70e7,"resting calcium signal, replicate 1":1.88e7,"resting calcium signal, replicate 2":1.79e7,"activity call":"inactive"}
{"gene":"CG13045","dsRNA no.":1,"calcium entry signal, replicate 1":3.04e7,"calcium entry signal, replicate 2":4.87e7,"resting calcium signal, replicate 1":1.69e7,"resting calcium signal, replicate 2":1.89e7,"activity call":"inactive"}
{"gene":"Trm7-34 (tRNA methyltransferase 7-34)","dsRNA no.":1,"calcium entry signal, replicate 1":3.11e7,"calcium entry signal, replicate 2":3.49e7,"resting calcium signal, replicate 1":7.56e7,"resting calcium signal, replicate 2":1.51e7,"activity call":"inactive"}
{"gene":"CG14105","dsRNA no.":1,"calcium entry signal, replicate 1":2.98e7,"calcium entry signal, replicate 2":3.76e7,"resting calcium signal, replicate 1":1.61e7,"resting calcium signal, replicate 2":1.86e7,"activity call":"inactive"}
{"gene":"CG30110","dsRNA no.":1,"calcium entry signal, replicate 1":3.68e7,"calcium entry signal, replicate 2":3.98e7,"resting calcium signal, replicate 1":1.81e7,"resting calcium signal, replicate 2":1.98e7,"activity call":"inactive"}
{"gene":"CG42264","dsRNA no.":1,"calcium entry signal, replicate 1":4.00e7,"calcium entry signal, replicate 2":4.41e7,"resting calcium signal, replicate 1":1.97e7,"resting calcium signal, replicate 2":2.09e7,"activity call":"inactive"}
{"gene":"CG42264","dsRNA no.":2,"calcium entry signal, replicate 1":3.59e7,"calcium entry signal, replicate 2":4.51e7,"resting calcium signal, replicate 1":1.79e7,"resting calcium signal, replicate 2":1.94e7,"activity call":"inactive"}
{"gene":"Cyt-b5-r (Cytochrome b5-related)","dsRNA no.":1,"calcium entry signal, replicate 1":3.36e7,"calcium entry signal, replicate 2":2.38e7,"resting calcium signal, replicate 1":1.47e7,"resting calcium signal, replicate 2":1.11e7,"activity call":"inactive"}
{"gene":"U2af38 (U2 small nuclear riboprotein auxiliary factor 38)","dsRNA no.":1,"calcium entry signal, replicate 1":1.74e7,"resting calcium signal, replicate 1":1.31e7,"activity call":"inactive"}
{"gene":"mod(mdg4) + pre-mod(mdg4)-Z + pre-mod(mdg4)-T","dsRNA no.":1,"calcium entry signal, replicate 1":3.56e7,"calcium entry signal, replicate 2":2.92e7,"resting calcium signal, replicate 1":1.96e7,"resting calcium signal, replicate 2":1.56e7,"activity call":"inactive"}
{"gene":"mod(mdg4) + pre-mod(mdg4)-Z + pre-mod(mdg4)-T","dsRNA no.":2,"calcium entry signal, replicate 1":2.34e7,"calcium entry signal, replicate 2":2.89e7,"resting calcium signal, replicate 1":3.19e7,"resting calcium signal, replicate 2":1.25e7,"activity call":"inactive"}
{"gene":"CYTB (retired record)","dsRNA no.":1,"calcium entry signal, replicate 1":3.21e7,"calcium entry signal, replicate 2":3.42e7,"resting calcium signal, replicate 1":1.89e7,"resting calcium signal, replicate 2":1.53e7,"activity call":"inactive"}
{"gene":"disco (disconnected)","dsRNA no.":1,"calcium entry signal, replicate 1":5.53e7,"calcium entry signal, replicate 2":3.47e7,"resting calcium signal, replicate 1":2.44e7,"resting calcium signal, replicate 2":1.44e7,"activity call":"inactive"}
{"gene":"Prosbeta3 (Proteasome beta3 subunit)","dsRNA no.":1,"calcium entry signal, replicate 1":1.75e7,"calcium entry signal, replicate 2":2.05e7,"resting calcium signal, replicate 1":1.29e7,"resting calcium signal, replicate 2":1.30e7,"activity call":"inactive"}
{"gene":"CG10904","dsRNA no.":1,"calcium entry signal, replicate 1":3.92e7,"calcium entry signal, replicate 2":3.98e7,"resting calcium signal, replicate 1":1.91e7,"resting calcium signal, replicate 2":1.94e7,"activity call":"inactive"}
{"gene":"CG12398","dsRNA no.":1,"calcium entry signal, replicate 1":2.11e7,"calcium entry signal, replicate 2":2.51e7,"resting calcium signal, replicate 1":1.35e7,"resting calcium signal, replicate 2":1.27e7,"activity call":"inactive"}
{"gene":"CG42366","dsRNA no.":1,"calcium entry signal, replicate 1":3.82e7,"calcium entry signal, replicate 2":5.94e7,"resting calcium signal, replicate 1":2.01e7,"resting calcium signal, replicate 2":2.30e7,"activity call":"inactive"}
{"gene":"CG42366","dsRNA no.":2,"calcium entry signal, replicate 1":3.49e7,"calcium entry signal, replicate 2":3.99e7,"resting calcium signal, replicate 1":1.65e7,"resting calcium signal, replicate 2":1.83e7,"activity call":"inactive"}
{"gene":"Abca3 (ATP binding cassette subfamily A member 3)","dsRNA no.":1,"calcium entry signal, replicate 1":3.63e7,"calcium entry signal, replicate 2":3.50e7,"resting calcium signal, replicate 1":2.13e7,"resting calcium signal, replicate 2":1.79e7,"activity call":"inactive"}
{"gene":"CG42715 (retired record)","dsRNA no.":1,"calcium entry signal, replicate 1":4.07e7,"calcium entry signal, replicate 2":3.60e7,"resting calcium signal, replicate 1":3.83e7,"resting calcium signal, replicate 2":1.69e7,"activity call":"inactive"}
{"gene":"Cdc50 (Cell division cycle 50)","dsRNA no.":1,"calcium entry signal, replicate 1":2.18e7,"calcium entry signal, replicate 2":2.64e7,"resting calcium signal, replicate 1":1.20e7,"resting calcium signal, replicate 2":1.23e7,"activity call":"inactive"}
{"gene":"CG34426","dsRNA no.":1,"calcium entry signal, replicate 1":3.55e7,"calcium entry signal, replicate 2":5.59e7,"resting calcium signal, replicate 1":1.64e7,"resting calcium signal, replicate 2":2.37e7,"activity call":"inactive"}
